# PubChem BioAssay AID1671190 (National Center for Advancing Translational Sciences (NCATS), 2021)
# Amino acid sequences for entries named in this document (tags omitted). A change or cut given only in a name is not applied to a line headed by its entry.
# UniProt P18054: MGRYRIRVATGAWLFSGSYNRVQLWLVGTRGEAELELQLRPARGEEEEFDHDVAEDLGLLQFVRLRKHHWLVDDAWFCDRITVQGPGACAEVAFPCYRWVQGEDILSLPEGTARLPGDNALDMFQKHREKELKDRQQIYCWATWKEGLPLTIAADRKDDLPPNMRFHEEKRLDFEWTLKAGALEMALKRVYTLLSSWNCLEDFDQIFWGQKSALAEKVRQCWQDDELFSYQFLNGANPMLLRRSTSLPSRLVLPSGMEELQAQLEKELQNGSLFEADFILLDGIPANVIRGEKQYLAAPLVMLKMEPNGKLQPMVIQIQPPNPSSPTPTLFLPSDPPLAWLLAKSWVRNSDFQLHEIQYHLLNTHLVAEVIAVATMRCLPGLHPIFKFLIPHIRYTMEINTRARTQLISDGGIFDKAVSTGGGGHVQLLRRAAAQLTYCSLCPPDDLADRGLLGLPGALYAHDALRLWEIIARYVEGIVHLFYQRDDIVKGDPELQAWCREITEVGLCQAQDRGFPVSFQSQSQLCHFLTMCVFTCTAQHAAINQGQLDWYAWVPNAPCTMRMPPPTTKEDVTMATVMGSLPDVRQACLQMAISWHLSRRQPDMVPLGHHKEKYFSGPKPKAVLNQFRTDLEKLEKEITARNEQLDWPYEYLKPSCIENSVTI
# Several values for one entry are separate records, joined by “and”; a condition that tells them apart may be missing. Equal values may be shown once. Screen size: about 580,000 compounds; about 6,100 (1.1%) were called active. This list was built around the results that the source calls inconclusive (neither active nor inactive); the mix of calls is not that of the screen. Calls come from the whole dose curve; as a rule, active = well fitted inhibition curve with a large enough effect; inconclusive = small, poorly fitted or top-dose-only effect, or another doubt; inactive = no such curve, though single readings can be large or run the other way. Potencies of inconclusive entries are doubtful fits and often do not repeat. Some compounds were tested as several samples or in several runs, with calls that do not always agree.
# Target: Polyunsaturated fatty acid lipoxygenase ALOX12 (Homo sapiens) (UniProt P18054)
# Assay: Primary qHTS assay for inhibitors of human arachidonate 12S-lipoxygenase (ALOX12): Round 2
# Conditions: purified 12hLO, xylenol orange hydroperoxide absorbance; activity change, negative = inhibition: at 108 µM (top of the series) unless noted
# Procedure, shortened: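 Hydroperoxide product was detected by ferrous iron/xylenol orange as the 573 to 405 nm absorbance ratio. Arachidonic acid at 40 uM (final) was turned over for 30 min at room temperature by 150 nM human 12hLO, pH 7.0 Hepes buffer, after 15 min compound preincubation.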
# % is set by controls: 0 for no effect and ±100 for the full control effect; potency is the fitted concentration of half-maximal effect.
Compound,Potency,"activity change, negative = inhibition"
O=C(/C=C/c1ccc(S(=O)(=O)N2CCOCC2)cc1)N1CCCCC1,inactive,–
COc1cc(C)c(S(=O)(=O)N2CCN(c3ccccc3)CC2)cc1C,"inconclusive: 25.1 µM [inhibitor, single point]",–
CCN1CCN(C(c2cccnc2)c2cc(Cl)c3cccnc3c2O)CC1 (stereo not drawn),"inconclusive: 12.6 µM [inhibitor, full curve]",–
CSc1cccc(NC(=O)C2CCN(S(=O)(=O)c3ccc(F)cc3)CC2)c1,inactive,–
CC(CNC(=O)c1ccc(C(C)(C)C)cc1)NC(=O)c1ccc(C(C)(C)C)cc1 (stereo not drawn),"inconclusive: 39.8 µM [inhibitor, single point]",–
CCC(=O)OCCNc1cc(Sc2nc3ccccc3[nH]2)c2nonc2c1[N+](=O)[O-],"inconclusive: 28.2 µM [inhibitor, partial curve]",–
COc1ccc(Cl)cc1C(=O)N1CCC2(CC1)NC(=O)N(c1ccccc1)N2,active: 1.78 µM,–
COC(=O)c1sccc1NC(=O)CN(C)NS(=O)(=O)c1ccc([N+](=O)[O-])cc1,"inconclusive: 39.8 µM [inhibitor, partial curve, poor fit]",–
CCCC(=O)C1=C(O)C(C(=O)OC)C(C)(C)CC1=Nc1ccc(C)cc1 (stereo not drawn),"inconclusive: 141 µM [inhibitor, single point]",–
Cn1c(=O)c2c(nc(SCC(=O)Nc3ccc(F)cc3)n2Cc2ccc(Cl)cc2)n(C)c1=O,–,inconclusive: -42.7% [inhibitor]
CC(C)(C)S(=O)N1Cc2cc(CO)ccc2[C@@H]1CCO (stereo partly drawn),inactive,–
CC(=O)C1=C(O)C(=O)N(CCc2c[nH]c3ccccc23)C1c1ccc(C)cc1 (stereo not drawn),"inconclusive: 44.7 µM [inhibitor, partial curve]",–
Cc1cccc(Cn2c(-c3cccs3)nc3ccccc32)c1,inactive,–
NC(=O)Cn1c(=O)n(-c2ccc(F)c(Cl)c2)c(=O)c2sc3ccccc3c21,"inconclusive: 141 µM [inhibitor, partial curve, poor fit]",–
Cc1cccn2c(=O)c3cc(C#N)c(=O)n(Cc4cccnc4)c3nc12,"inconclusive: 44.7 µM [inhibitor, partial curve, poor fit]",–
CCN1CCN(CCCN2CC3(CCN(C(=O)C4CCOC4)CC3)OC2=O)CC1 (stereo not drawn),inactive,–
Cc1ccccc1N(C)C1CN(Cc2cccs2)C1,inactive,–
COc1ccccc1NS(=O)(=O)c1cc(NC(=O)c2ccc(NC(C)=O)cc2)ccc1N1CCOCC1,"inconclusive: 44.7 µM [inhibitor, partial curve, poor fit]",–
CCc1nc(SCc2cc(=O)c3cc(F)ccc3[nH]2)n[nH]1,"inconclusive: 56.2 µM [inhibitor, partial curve, poor fit]",–
Nc1c(Cl)cc(C2=NCCn3c2c2ccc([N+](=O)[O-])cc2[n+]3[O-])cc1Cl,"inconclusive: 44.7 µM [inhibitor, partial curve, poor fit]",–
CCN(CC)CC(C)(C)C(=O)/C=C/c1ccc(/C=C/C(=O)C(C)(C)CN(CC)CC)cc1,inactive,–

Compound,Potency,"activity change, negative = inhibition"
Cc1ncc([N+](=O)[O-])n1CCN1C(=O)c2ccccc2C1=O,"inconclusive: 25.1 µM [inhibitor, single point]",–
CCCC1(C(=O)OCC)NC(c2ccc(N(C)C)cc2)C2C(=O)N(c3ccc(F)cc3)C(=O)C21 (stereo not drawn),inactive,–
Cc1c(O)ccc2c(CN3CCCCC3C)cc(=O)oc12 (stereo not drawn),"inconclusive: 44.7 µM [inhibitor, partial curve]",–
CCCCCCCNC1=CC(=O)CC(c2ccco2)C1 (stereo not drawn),"inconclusive: 50.1 µM [inhibitor, partial curve, poor fit]",–
c1nc(NC2CC2)c2cc(-c3ccoc3)ccc2n1,"inconclusive: 5.62 µM [inhibitor, full curve, poor fit]",–
O=S(=O)(NCCc1ncc2ccccn12)c1ccc(Br)cc1,"inconclusive: 22.4 µM [inhibitor, partial curve, poor fit]",–
OCCN(CCO)CC(O)COc1ccc(C23CC4CC(CC(C4)C2)C3)cc1 (stereo not drawn),"inconclusive: 1.12 µM [inhibitor, full curve, poor fit]",–
COc1cc2c(cc1OC)CN(C(=S)NC(=O)c1ccccc1)CC2,"inconclusive: 39.8 µM [inhibitor, partial curve, poor fit]",–
COC1=CC(=O)CC(C)C12Oc1cc(OC)cc(OC)c1C2=O (stereo not drawn),inactive,–
CC(C)c1ccc(NC(=O)c2ccc(F)c(S(=O)(=O)N3CCN(c4ccccc4F)CC3)c2)cc1,inactive,–
CN1CCc2c(sc(NC(=O)c3ccco3)c2C(N)=O)C1,"inconclusive: 35.5 µM [inhibitor, partial curve]",–
CC(C)(C)NC(=O)c1ccc2c(c1)C(=O)N(Cc1ccco1)C2=O,inactive,–
COc1ccc([N+](=O)[O-])cc1NC(=O)CSCc1ccc(Br)cc1,"inconclusive: 63.1 µM [inhibitor, partial curve, poor fit]",–
CN(c1ccccc1)c1cc(=O)c2ccnc(-c3ccc(CO)cc3)c2o1,inactive,–
O=C1Nc2ccccc2N=C(c2ccc3c(c2)OCO3)C1N(CCc1ccccc1)C(=O)CSc1ncccn1 (stereo not drawn),"inconclusive: 5.62 µM [inhibitor, partial curve, poor fit]",–
O=C(NCc1nnc2n1C(C(=O)O)CC2)c1ccc(F)cc1 (stereo not drawn),"inconclusive: 31.6 µM [inhibitor, partial curve, poor fit]",–
Cc1[nH]nc2c1/C(=N/O)CC(c1ccccc1)C2 (stereo not drawn),"inconclusive: 14.1 µM [inhibitor, partial curve, poor fit]",–
CCCS(=O)(=O)NC(=O)C1(C)CCN1C(=O)Cc1ccc(-c2ccccc2)cc1 (stereo not drawn),"inconclusive: 100 µM [inhibitor, single point]",–
CCCn1c(-c2ccc(F)cc2)cnc1SCC(=O)O,"inconclusive: 35.5 µM [inhibitor, partial curve, poor fit]",–
CCN(C(=O)CSc1ccccn1)C1CCCCC1,inactive,–
COc1ccc(C2=Nc3ccccc3N(C(=O)c3ccc(C)cc3)C2C(=O)NCc2ccccc2)cc1 (stereo not drawn),active: 3.55 µM,–

# Molecules listed so far that have a tert-butyl group (three):
Compound,Potency,"activity change, negative = inhibition"
CC(CNC(=O)c1ccc(C(C)(C)C)cc1)NC(=O)c1ccc(C(C)(C)C)cc1 (stereo not drawn),"inconclusive: 39.8 µM [inhibitor, single point]",–
CC(C)(C)S(=O)N1Cc2cc(CO)ccc2[C@@H]1CCO (stereo partly drawn),inactive,–
CC(C)(C)NC(=O)c1ccc2c(c1)C(=O)N(Cc1ccco1)C2=O,inactive,–

# More compounds

Compound,Potency,"activity change, negative = inhibition"
O=C(CSc1nc(-c2cccs2)nc2ccccc12)NCc1ccco1,"inconclusive: 44.7 µM [inhibitor, full curve, poor fit]",–
c1cnc(N2CCN(Cc3ccc4c(c3)OCO4)CC2)nc1,"active: 22.4 µM and inconclusive: 12.8 µM [inhibitor, partial curve]",–
Cc1ccc(C(=O)/C=C/c2cn(CC(O)CN3CCCCCC3)c3ccccc23)cc1 (stereo not drawn),"inconclusive: 112 µM [inhibitor, partial curve, poor fit]",–
O=C(O)CC(Sc1n[nH]c(=S)s1)C(=O)O (stereo not drawn),active: 2 µM,–
COc1ccc(OC)c(-n2c(-c3ccc(C)cc3)n[nH]c2=S)c1,"inconclusive: 2.51 µM [inhibitor, full curve, poor fit]",–
CCCSCCCNC(=O)CN1C(=O)CCn2nc(-c3cn(C)c4ccccc34)cc21,"inconclusive: 100 µM [inhibitor, partial curve, poor fit]",–
COc1cc(NS(=O)(=O)c2ccc(NC(=O)c3ccc(OC)c(Br)c3)cc2)nc(OC)n1,"inconclusive: 50.1 µM [inhibitor, partial curve, poor fit]",–
O=C(CC(C(=O)O)c1ccccc1)c1cccs1 (stereo not drawn),"inconclusive: 126 µM [inhibitor, single point]",–
CCN(CC)c1sc(S(=O)(=O)c2ccc(C)cc2)nc1S(=O)(=O)c1ccc(C)cc1,"inconclusive: 31.6 µM [inhibitor, partial curve, poor fit]",–
CCc1ccc(S(=O)(=O)n2ccnc2)cc1,"inconclusive: 14.1 µM [inhibitor, full curve, poor fit]",–
CCN1C(=O)S/C(=C/c2cn(C(C)C)c3ccccc23)C1=O,inactive,–
COc1cc(/C=C2/C(=O)NN(c3cccc(C)c3)C2=O)cc([N+](=O)[O-])c1O,"inconclusive: 44.7 µM [inhibitor, partial curve, poor fit]",–
CCN(CC)CCNC(=O)c1cc(C)nc2c(C)cccc12,"inconclusive: 50.1 µM [inhibitor, partial curve, poor fit]",–
O=C(Nc1ccncc1)C1CCN(S(=O)(=O)c2cccc(C(F)(F)F)c2)CC1,"inconclusive: 50.1 µM [inhibitor, partial curve, poor fit]",–
N#CC(C(=O)OC1CCCCC1)c1nc2ccccc2nc1N1CCCCC1 (stereo not drawn),inactive,–
Cn1c(Cn2cccn2)nnc1C1CCCN(C(=O)c2ccc(=O)[nH]c2)C1 (stereo not drawn),"inconclusive: 7.08 µM [inhibitor, full curve, poor fit]",–
CCCc1c(C(=O)N/N=C/C(C)=C/c2ccco2)nnn1-c1nonc1N,"inconclusive: 44.7 µM [inhibitor, partial curve, poor fit]",–
Cc1ccc2c(n1)N(C)[C@H](CO)CCN(Cc1ccc(Cl)cc1)C2,inactive,–
COc1ccc(C2C(c3ccccc3)=C(O)C(=O)N2CCc2ccccc2)cc1OC (stereo not drawn),inactive,–
C[C@](N)(Cc1ccc(O)c(O)c1)C(=O)O,"inconclusive: 1.12 µM [inhibitor, full curve, poor fit] and inconclusive: 15.3 µM [inhibitor, partial curve, poor fit] and inconclusive: 28.2 µM [inhibitor, partial curve, poor fit]",–
COc1ccccc1N1CCN(C2CC(=O)N(c3cccc(Br)c3)C2=O)CC1 (stereo not drawn),"inconclusive: 3.98 µM [inhibitor, full curve, poor fit]",–
